According to PubChem BioAssay AID493014 (National Center for Advancing Translational Sciences (NCATS), 2011):
The list shows a part of the results. Shown are side measurements of this screen, not its main read-out; they come without a call. The list favours compounds with an active or inconclusive main result. Words in brackets tell the shape of the fitted curve; partial curves, single points and poor fits give uncertain potencies.

Experiment: qHTS Assay to Find Inhibitors of Chronic Active B-Cell Receptor Signaling
Conditions: ABC-DLBCL IkBa-CBG/CBR reporter, luminescence ratio (green luciferase fused to IkBa over red control in TMD8 lymphoma cells), 4 h
Method in brief: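 Cell line TMD8 (human ABC DLBCL), stably expressing tet-inducible CBG68-IkBa fusion and CBR; IMDM/0.5% FBS; cpd up to 46 uM; dox induction, 4 h, 37C/5% CO2; dual luminescence; green/red ratio; MG132 control.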

[1] = measured here: CBR red luminescence, cell number
[2] = measured here: IkBa-CBG green luminescence

Structure (SMILES)	AC50 [1]	AC50 [2]
COC(=O)CCCNc1ncccc1[N+](=O)[O-]	35.5 µM [rising, single point]	
COc1ccc2nc(NC(=O)CSc3nc(SC)ns3)sc2c1	0.184 µM [rising, full curve, poor fit]	
O=C1C=CC(=O)N1c1ccc(O)cc1	12.6 µM [falling, partial curve]	28.2 µM [rising, partial curve, poor fit]
CC1=C(C)CC(C(=O)NNC(=O)c2csc(C)c2C)C(C(=O)O)C1 (centres undefined)	4.61 µM [falling, partial curve]	
COc1ccccc1C(=O)NCCCNc1ccc([N+](=O)[O-])cc1	0.184 µM [rising, full curve, poor fit]	
COc1cc(/C=C/C(=O)c2ccc(NS(=O)(=O)c3ccc(C)cc3)cc2)cc(OC)c1O	25.9 µM [falling, single point]	
O=C(N/N=C/c1sc(N2CCOCC2)nc1-c1ccccc1)c1cccc(S(=O)(=O)N2CCOCC2)c1	1.26 µM [rising, full curve, poor fit]	
CCOc1cc(/C=N/N2C(=O)NC3(CCCCC3)C2=O)cc(Br)c1O	20 µM [rising, single point]	
CC(c1ccco1)N(C(=O)c1ccccc1NS(=O)(=O)c1cccc([N+](=O)[O-])c1)c1ccccn1 (centres undefined)	29.1 µM [rising, single point]	
CCCC(=O)NC(c1ccccc1)c1ccc2cccnc2c1O (centres undefined)	17.8 µM [falling, partial curve, poor fit]	
c1ccc(Sc2ncnc3ccccc23)cc1	3.16 µM [falling, partial curve, poor fit]	
COc1ccc(Cl)cc1NC(=O)CN(C)C(=O)c1cc2ccccc2cc1O	29.1 µM [falling, single point]	
CN(CC(=O)Nc1ccccc1Br)c1ncnc2sccc12	3.98 µM [rising, full curve, poor fit]	
NC(=O)COC(=O)c1ccc(Cl)c(S(=O)(=O)N(Cc2ccccc2)c2ccc(Cl)cc2)c1	20.6 µM [falling, partial curve]	
Cc1ccc(C2CC(=O)Oc3cc(O)ccc32)cc1 (centres undefined)	0.103 µM [rising, full curve, poor fit]	
N#CCCN(C(=O)Nc1ccccc1)c1ccccc1	0.517 µM [rising, full curve, poor fit]	
COc1cc2c(cc1OC)-c1cc(NC3CCCCCC3)nc(=O)n1CC2		5.01 µM [falling, partial curve]
Cc1ccsc1/C=N/NC(=O)c1ccc2ccccc2c1	11.2 µM [falling, partial curve]	
COc1ccccc1C(=O)NC1CCCCCCC1	10.3 µM [rising, partial curve, poor fit]	
COc1ccc(S(=O)(=O)N2CCCCCC2)cc1C(=O)N(C)CC(=O)Nc1ccc(Cl)c(Cl)c1	29.1 µM [falling, single point]	
CCN(c1ccc(NC(=O)CSCc2c(C)noc2C)cc1)C(C)C	29.1 µM [rising, single point]	

Structure (SMILES)	AC50 [1]	AC50 [2]
COc1ccc(C(CNC(=O)c2ccc(S(=O)(=O)N3CC(C)CC(C)C3)cc2)N(C)C)cc1 (centres undefined)	6.51 µM [rising, single point]	2.91 µM [falling, single point]
Cc1ccc2nc(N/C(=N/S(=O)(=O)c3ccc(F)cc3)c3ccccc3)sc2c1	0.794 µM [falling, full curve]	
CC1CN(C(=O)c2cccc(COc3ccccc3Cl)c2)CC(C)O1 (centres undefined)	1.12 µM [rising, partial curve, poor fit]	
NC(=O)/C=C/C(=O)Nc1ccc(Cl)cc1	12.6 µM [falling, partial curve]	15.8 µM [rising, partial curve, poor fit]
NC(N)=N/N=C/c1cccc(Cl)c1Cl	14.1 µM [falling, partial curve, poor fit]	
O=C(NCc1ccc2c(c1)CCN2C(=O)c1ccc(F)cc1)c1ccc(Br)o1	8.91 µM [falling, partial curve, poor fit]	
COc1cccc(/C=N/n2c(-c3ccco3)nc3ccccc3c2=O)c1	0.411 µM [falling, full curve]	
COc1ccc2[nH]c(=O)c(COC(=O)c3ccco3)cc2c1	29.1 µM [rising, single point]	
Cc1c(C(=O)/C=C/N(C)C)nnn1-c1ccc(Cl)c(Cl)c1	35.5 µM [rising, single point]	
CCN1c2ccccc2-c2nc3ccccc3n2C1c1cccnc1 (centres undefined)	3.98 µM [falling, full curve, poor fit]	
COCc1cc(=O)[nH]c(/N=C(\N)Nc2cccc(C)c2)n1	25.9 µM [falling, partial curve, poor fit]	
NC(=O)c1ccc[n+](CC(=O)c2ccccc2)c1	3.98 µM [rising, single point]	
CCc1ccc(/C(C)=N\Nc2ccc([N+](=O)[O-])cc2)cc1	11.2 µM [rising, partial curve]	
O=C(NCCCN1CCOCC1)C(=O)N/N=C/c1ccc(F)cc1	3.16 µM [falling, single point]	
CCSc1ccccc1C(=O)NCCc1ccccc1	22.4 µM [rising, single point]	
O=c1nc(Nc2ccccc2)oc2ccccc12	6.31 µM [falling, partial curve]	
COC(=O)CSc1nc(C)c(C(C)=O)cc1C#N	7.31 µM [falling, partial curve]	
CCOc1ccccc1NC(=O)NNS(=O)(=O)c1ccc([N+](=O)[O-])cc1	0.631 µM [falling, full curve, poor fit]	
COc1ccccc1OCc1csc(NC(=O)c2ccco2)n1	17.8 µM [falling, single point]	
CC(=O)N1N=C(c2c(-c3ccccc3)c3cc(Br)ccc3[nH]c2=O)CC1c1ccco1 (centres undefined)	10 µM [falling, partial curve, poor fit]	
CN(C(=O)c1cccc(C#N)c1)c1nnc(-c2ccccn2)s1	0.461 µM [rising, full curve, poor fit]	

At a glance, part of the list above:
Structure (SMILES)	AC50 [1]	AC50 [2]
CCOc1ccccc1NC(=O)NNS(=O)(=O)c1ccc([N+](=O)[O-])cc1	0.631 µM [falling, full curve, poor fit]	
COc1ccccc1OCc1csc(NC(=O)c2ccco2)n1	17.8 µM [falling, single point]	
CC(=O)N1N=C(c2c(-c3ccccc3)c3cc(Br)ccc3[nH]c2=O)CC1c1ccco1 (centres undefined)	10 µM [falling, partial curve, poor fit]	
CN(C(=O)c1cccc(C#N)c1)c1nnc(-c2ccccn2)s1	0.461 µM [rising, full curve, poor fit]	

Further structures follow:

Structure (SMILES)	AC50 [1]	AC50 [2]
O=c1[nH][nH]c(-c2ccccc2O)c1C(C[N+](=O)[O-])c1cccc(Cl)c1 (centres undefined)	20.6 µM [falling, single point]	29.1 µM [falling, partial curve, poor fit]
Cc1cc(=O)n2nc(-c3ccc(C(F)(F)F)cc3)sc2n1	2.06 µM [rising, partial curve, poor fit]	
O=C(Nc1ccc(F)c(Cl)c1)Nc1cnccn1	14.1 µM [rising, single point]	
COC(=O)c1ccc(C)c(NC(=O)c2c(-c3ccccc3)noc2C)c1	23.1 µM [rising, single point]	
Cc1ccc(-c2nc(C(=O)NCCCN3CCOCC3)cc3c2[nH]c2ccccc23)cc1	35.5 µM [falling, single point]	20 µM [rising, single point]
Cc1ccc(NC(=O)c2cc(NC(=O)CCCC(=O)O)ccc2Cl)cc1Cl	11.2 µM [falling, partial curve, poor fit]	
COC(CN(C(=O)CCl)C(C(=O)NC1CCCCC1)c1ccc(C)cc1)OC (centres undefined)	29.1 µM [falling, single point]	
CCN1CCN(C(=O)c2ccc(N3CC4CC(C3)c3cccc(=O)n3C4)c([N+](=O)[O-])c2)CC1 (centres undefined)	12.6 µM [rising, single point]	
COc1cccc(C2N(c3ccccc3)CCN2c2ccccc2)c1OC	11.2 µM [rising, partial curve]	
O=C(Nc1ccc(N2CCOCC2)cc1)c1ccc(S(=O)(=O)NCc2ccco2)cc1	12.6 µM [rising, partial curve, poor fit]	
N#Cc1ccc(-c2ccc(OCC(O)CN3CCCCC3)cc2)cc1 (centres undefined)	10 µM [falling, single point]	
CC(C)CNC(=O)c1ccccc1NC(=O)CCSc1ccccc1	2.31 µM [falling, full curve, poor fit]	
CC(=O)c1ccc(NC(=O)c2ccc3nc(C)sc3c2)cc1	7.94 µM [rising, partial curve]	
Cc1noc(C)c1S(=O)(=O)N1CCCCC1	6.51 µM [rising, single point]	
CCN(CC)S(=O)(=O)c1ccc(C(=O)OCCN2C(=O)CCC2=O)cc1	1.78 µM [rising, full curve, poor fit]	
C=CCn1c(N)c(S(=O)(=O)c2cccs2)c2nc3ccccc3nc21	4.61 µM [falling, partial curve, poor fit]	
Cn1nc(N)c2c(-c3ccc(Cl)cc3)c(C#N)c(N)nc21	1.16 µM [falling, full curve, poor fit]	
O=C(Nc1cccc(NC(=O)N2CCN(c3ccccc3)CC2)c1)N1CCN(c2ccccc2)CC1	0.794 µM [falling, full curve]	
CCN1CCc2c(sc(NC(=S)NC(=O)c3ccccc3)c2C#N)C1	12.6 µM [falling, single point]	
O=C(NNC(=O)c1cccc([N+](=O)[O-])c1)c1ccncc1	12.6 µM [falling, partial curve, poor fit]	
O=C(CCN1CCC(c2ccccc2)C1)c1ccc2c(c1)OCCO2 (centres undefined)	10 µM [falling, partial curve]	11.6 µM [rising, partial curve, poor fit]
